# Laboratory results reported in PubChem BioAssay AID504467 (National Center for Advancing Translational Sciences (NCATS), 2011).
# The campaign covered roughly 330,000 compounds. About 7,700 (2.3%) were called active. Inconclusive results, whose numbers are uncertain, are shown with a selection of clear calls. Calls come from the whole dose curve; as a rule, active = well fitted inhibition curve with a large enough effect; inconclusive = small, poorly fitted or top-dose-only effect, or effect the other way; inactive = flat fitted curve, though single readings scatter. A potency beside an inconclusive call is a rough fit, not a confirmed value.
# Assay: qHTS screen for small molecules that inhibit ELG1-dependent DNA repair in human embryonic kidney (HEK293T) cells expressing luciferase-tagged ELG1; note: nearly all actives have a fitted effect of over 55% in size
# Settings: HEK293T ELG1-luciferase reporter, luminescence, 16 h, DNA damage induced by 5-fluorouridine; activity change, negative = inhibition: at 46.1 µM (top of the series)
# Summary of the method: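 Reporter activity after DNA damage by 5-fluorouridine is monitored. Compound-treated cells incubate 16 hr at 37 °C, then ONE-Glo is added for 30 min before luminescence reading.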
# % is set by controls: 0 for no effect and ±100 for the full control effect; potency is the fitted concentration of half-maximal effect.
Compound,Potency,"activity change, negative = inhibition"
Cc1ccccc1OCc1nc2ccccc2c(=O)n1/N=C/c1cccc([N+](=O)[O-])c1,"inconclusive: 13 µM [inhibitor, partial curve, poor fit]",
NNC(=O)Cn1c(COc2ccc(Cl)cc2)nc2ccccc21,"inconclusive: 25.9 µM [activator, partial curve, poor fit]",
CN(CC1CCCO1)S(=O)(=O)c1ccc(C(=O)Nc2ccc3c(c2)OCO3)cc1 (centres undefined),active: 11.6 µM,
O=S1(=O)c2cccc3cccc(c23)N1CCBr,,inactive: 1.48%
Cc1csc(SC(C)C(=O)NCC2CCCO2)n1 (centres undefined),,inactive: 23.4%
NC(=O)c1ccc(N2CCN(c3ccc(O)cc3)CC2)c([N+](=O)[O-])c1,active: 4.11 µM,
CCCCNS(=O)(=O)c1ccc(NC(=O)c2cccs2)cc1,"inconclusive: 29.1 µM [inhibitor, single point]",
S=C(NCCN1CCOCC1)Nc1cccc(Cl)c1,,inactive: -10.8%
Cc1c(-c2cccc(Cl)c2)nc2ccccc2c1C(=O)OCC(=O)Nc1ccc2c(c1)OCO2,active: 18.4 µM,
CCc1ccc(C2c3[nH]c4ccccc4c3CCN2C(=O)c2cc(C)nn2C)cc1 (centres undefined),"inconclusive: 3.66 µM [inhibitor, full curve]",
Cc1cc(=O)n2nc(N3CCCC(C(=O)Nc4ccc(C)c(C)c4)C3)sc2n1 (centres undefined),"inconclusive: 32.6 µM [activator, partial curve, poor fit]",
Clc1ccc(/C(Cc2nc3ccccc3[nH]2)=N\Nc2ccccc2)cc1,"inconclusive: 4.61 µM [activator, full curve]",
COc1cc2c(cc1OC)C1=C(C#N)CC/C(=N\S(=O)(=O)c3cccc(Cl)c3)N1CC2,"inconclusive: 23.1 µM [inhibitor, partial curve]",
COc1cc(Cl)c(C)cc1NC(=O)CSc1nnc(-c2ccco2)n1CC(C)C,"inconclusive: 23.1 µM [inhibitor, partial curve, poor fit]",
C=CCn1c(Oc2ccccc2)nc2c1c(=O)n(C)c(=O)n2C,"inconclusive: 20.6 µM [inhibitor, single point]",
CN1CCN(C(=O)c2cc(COc3ccccc3)on2)[C@@H](c2ccccc2)C1,"inconclusive: 16.4 µM [activator, partial curve]",
Clc1ccc(-c2nsc(N3CCOCC3)n2)c(Cl)c1,"inconclusive: 7.3 µM [activator, partial curve]",
COc1cc2sc(-c3ccc(S(C)(=O)=O)cc3)c(C(=O)NCc3ccc(C)o3)c2cc1OC,active: 18.3 µM,
C=CCN1C(=O)N/C(=C/c2ccccc2OCC(=O)Nc2ccc(F)cc2)C1=O,"inconclusive: 29.1 µM [activator, partial curve, poor fit]",
Fc1ccc(CNc2ccccn2)cc1,"inconclusive: 35.5 µM [activator, single point]",
COc1ccc(-n2nc3c(c2NC(=O)c2c(-c4ccccc4Cl)noc2C)CS(=O)(=O)C3)cc1,,inactive: -0.485%
Cc1cc(C)nc(N/N=C/c2sccc2C)n1,"inconclusive: 10.3 µM [activator, partial curve]",

# Two compounds drawn at random from those above:
Compound,Potency,"activity change, negative = inhibition"
NNC(=O)Cn1c(COc2ccc(Cl)cc2)nc2ccccc21,"inconclusive: 25.9 µM [activator, partial curve, poor fit]",
CN(CC1CCCO1)S(=O)(=O)c1ccc(C(=O)Nc2ccc3c(c2)OCO3)cc1 (centres undefined),active: 11.6 µM,

# Later entries.

Compound,Potency,"activity change, negative = inhibition"
CCOC(=S)SCC(=O)N1CCc2cc(OC)ccc2C1C1C(=O)CCCC1=O (centres undefined),,inactive: -6.06%
CCOC(=O)N1CCN(C(=O)c2ccc3c(=O)n(CCC4=CCCCC4)c(=O)[nH]c3c2)CC1,"inconclusive: 23.1 µM [inhibitor, partial curve, poor fit]",
Cc1cc(C(=O)OCC(=O)Nc2ccccc2C(F)(F)F)on1,,inactive: 21.8%
N#Cc1ccc(C(=O)NC(=S)NC2CCCCC2)cc1,"inconclusive: 20.6 µM [activator, partial curve]",
Cc1cccnc1NC(=O)c1ccc2c(c1)OCO2,"inconclusive: 5.17 µM [activator, single point]",
CC1CCCCC1NC(=O)COC(=O)CNC(=O)c1cccc(F)c1 (centres undefined),,inactive: -3.03%
O=[N+]([O-])c1cccc(-c2noc(COc3ccccc3)n2)c1,"inconclusive: 18.3 µM [activator, single point]",
CC(C)CNC(=O)c1ccc2c(c1)C(=O)N(Cc1ccco1)C2=O,,inactive: -9.5%
CC(=O)Nc1nc2ccccc2n1Cc1ccccc1Cl,"inconclusive: 20.6 µM [inhibitor, single point]",
CCCCCC(=O)NNC(=O)c1c(O)c2ccccc2n(CC)c1=O,,inactive: 4.8%
Cc1cccc(OC(C)C(=O)Nc2ccc(S(=O)(=O)N3CCCC3)cc2)c1 (centres undefined),"inconclusive: 32.6 µM [inhibitor, partial curve, poor fit]",
COc1cc(OC)c2ccc(=O)oc2c1C(CC(=O)N1CCCC1)c1ccc(N(C)C)cc1 (centres undefined),,inactive: 11.4%
COc1cc(/C=C2\SC(=S)N(CC(=O)O)C2=O)ccc1OC(=O)c1ccco1,,inactive: 11.1%
O=C(c1cccc(S(=O)(=O)N2CCCCC2)c1)N(CCc1ccccc1)Cc1ccccc1,"inconclusive: 25.9 µM [inhibitor, single point]",
COc1ccccc1C(=O)N1CCN(c2ccccn2)CC1,"inconclusive: 35.5 µM [inhibitor, single point]",
Cc1cccc(OCC(=O)Nc2cc(C)on2)c1,"inconclusive: 23.1 µM [activator, single point]",
Cc1cccc(C(=O)N[C@H](C(=O)Nc2ccc(C)c(S(=O)(=O)N3CCOCC3)c2)C(C)C)c1,"inconclusive: 18.3 µM [inhibitor, partial curve]",
COc1ccc(OC)c(-c2csc(NC(=O)c3ccc(F)cc3)n2)c1,"inconclusive: 29.1 µM [inhibitor, single point]",
CC(C)(C)OC(=O)CNC(=O)c1[nH]cnc1C(=O)N[C@@H](CCCCNC(=O)OC(C)(C)C)C(=O)OC(C)(C)C,"inconclusive: 16.4 µM [inhibitor, partial curve, poor fit]",
C=C1CCC(O)C2(C)CCC3C(C)C(=O)OC3C12O (centres undefined),,inactive: -0.686%
CC(=O)Nc1cc(NC(C)=O)cc(C(=O)OCC(=O)N(c2ccccc2)C2CCS(=O)(=O)C2)c1 (centres undefined),,inactive: 9.6%
O=C(NC1CCN(S(=O)(=O)c2ccc(F)cc2)CC1)c1cccc(F)c1,"inconclusive: 0.206 µM [activator, partial curve]",
